According to paper PMC11354755:
Results are given in words; binding and its absence hold for the method and conditions named. In cells and extracts the contact can be indirect. Here binding means that the protein was enriched with, or labelled near, the bait; the list need not be complete.

Chains of the proteins cited; added tags and fusions are not shown.
UniProt P39081: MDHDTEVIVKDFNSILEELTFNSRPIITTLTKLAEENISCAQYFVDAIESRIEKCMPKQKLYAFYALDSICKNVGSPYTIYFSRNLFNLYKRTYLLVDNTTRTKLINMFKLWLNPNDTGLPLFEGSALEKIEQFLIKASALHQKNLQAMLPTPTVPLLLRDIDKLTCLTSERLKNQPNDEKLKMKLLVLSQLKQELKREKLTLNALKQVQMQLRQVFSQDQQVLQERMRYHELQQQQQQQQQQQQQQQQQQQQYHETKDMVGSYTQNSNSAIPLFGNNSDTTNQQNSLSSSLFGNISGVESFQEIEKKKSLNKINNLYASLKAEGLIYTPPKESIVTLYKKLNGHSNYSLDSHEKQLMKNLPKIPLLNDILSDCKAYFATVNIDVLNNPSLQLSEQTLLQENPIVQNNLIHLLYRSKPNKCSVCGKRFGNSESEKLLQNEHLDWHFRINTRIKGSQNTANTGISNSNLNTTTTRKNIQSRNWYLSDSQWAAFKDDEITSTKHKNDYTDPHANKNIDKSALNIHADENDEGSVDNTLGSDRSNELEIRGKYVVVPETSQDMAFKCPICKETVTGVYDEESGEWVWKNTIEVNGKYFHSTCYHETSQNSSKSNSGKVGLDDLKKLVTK

B1: Rna14 (protein, UniProt P25298 1-677)
chain: MSSSTTPDLLYPSADKVAEPSDNIHGDELRLRERIKDNPTNILSYFQLIQYLETQESYAKVREVYEQFHNTFPFYSPAWTLQLKGELARDEFETVEKILAQCLSGKLENNDLSLWSTYLDYIRRKNNLITGGQEARAVIVKAFQLVMQKCAIFEPKSSSFWNEYLNFLEQWKPFNKWEEQQRIDMLREFYKKMLCVPFDNLEKMWNRYTQWEQEINSLTARKFIGELSAEYMKARSLYQEWLNVTNGLKRASPINLRTANKKNIPQPGTSDSNIQQLQIWLNWIKWERENKLMLSEDMLSQRISYVYKQGIQYMIFSAEMWYDYSMYISENSDRQNILYTALLANPDSPSLTFKLSECYELDNDSESVSNCFDKCTQTLLSQYKKIASDVNSGEDNNTEYEQELLYKQREKLTFVFCVYMNTMKRISGLSAARTVFGKCRKLKRILTHDVYVENAYLEFQNQNDYKTAFKVLELGLKYFQNDGVYINKYLDFLIFLNKDSQIKTLFETSVEKVQDLTQLKEIYKKMISYESKFGNLNNVYSLEKRFFERFPQENLIEVFTSRYQIQNSNLIKKLELTYMYNEEEDSYFSSGNGDGHHGSYNMSSSDRKRLMEETGNNGNFSNKKFKRDSELPTEVLDLLSVIPKRQYFNTNLLDAQKLVNFLNDQVEIPTVESTKSG
B2: Rna15 (protein, UniProt P25299 1-296)
chain: MNRQSGVNAGVQNNPPSRVVYLGSIPYDQTEEQILDLCSNVGPVINLKMMFDPQTGRSKGYAFIEFRDLESSASAVRNLNGYQLGSRFLKCGYSSNSDISGVSQQQQQQYNNINGNNNNNGNNNNNSNGPDFQNSGNANFLSQKFPELPSGIDVNINMTTPAMMISSELAKKPKEVQLKFLQKFQEWTRAHPEDAVSLLELCPQLSFVTAELLLTNGICKVDDLIPLASRPQEEASATNNNSVNEVVDPAVLNKQKELLKQVLQLNDSQISILPDDERMAIWDLKQKALRGEFGAF
B3: Clp1 (protein, UniProt Q08685 1-445)
chain: MASLPGIDEHTTSEELITGDNEWHKLVIPKGSDWQIDLKAEGKLIVKVNSGIVEIFGTELAVDDEYTFQNWKFPIYAVEETELLWKCPDLTTNTITVKPNHTMKYIYNLHFMLEKIRMSNFEGPRVVIVGGSQTGKTSLSRTLCSYALKFNAYQPLYINLDPQQPIFTVPGCISATPISDILDAQLPTWGQSLTSGATLLHNKQPMVKNFGLERINENKDLYLECISQLGQVVGQRLHLDPQVRRSGCIVDTPSISQLDENLAELHHIIEKLNVNIMLVLCSETDPLWEKVKKTFGPELGNNNIFFIPKLDGVSAVDDVYKRSLQRTSIREYFYGSLDTALSPYAIGVDYEDLTIWKPSNVFDNEVGRVELFPVTITPSNLQHAIIAITFAERRADQATVIKSPILGFALITEVNEKRRKLRVLLPVPGRLPSKAMILTSYRYLE

target: T1, TFIIB (wild type) (S. cerevisiae) (UniProt P29055); assay: affinity purification with mass spectrometry; TFIIB affinity purified from chromatin and soluble fractions of S. cerevisiae TFIIB^WT and TFIIB^sua7-1 (sua7-1-HA, WA158) cells; quantitative proteomics, TFIIB-normalized spectral abundance factor (BNSAF); four replicates
T1 sequence: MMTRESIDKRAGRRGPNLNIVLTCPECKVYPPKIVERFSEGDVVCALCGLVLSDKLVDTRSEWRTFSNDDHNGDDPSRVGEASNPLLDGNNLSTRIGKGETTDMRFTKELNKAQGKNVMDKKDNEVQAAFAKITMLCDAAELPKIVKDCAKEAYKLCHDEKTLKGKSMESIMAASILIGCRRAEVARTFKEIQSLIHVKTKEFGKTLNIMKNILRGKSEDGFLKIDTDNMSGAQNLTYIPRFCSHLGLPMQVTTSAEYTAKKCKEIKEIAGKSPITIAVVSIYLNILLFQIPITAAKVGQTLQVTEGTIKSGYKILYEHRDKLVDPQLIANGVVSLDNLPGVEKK

| Molecule | binding |
| --- | --- |
| Pcf11 (from UniProt P39081 1-626) | binds |
| B1 | binds |
| B2 | binds |
| B3 | binds |
